Where a chain is given by its changes, count along the chain named. Names and notes keep the numbering of the source. Where two headings read alike, the source gives them in different places. These are yes or no findings as the source states them, for the method shown. Binding seen in cells or lysates may run through a third protein. Some binding calls cover weakened binding; strength is not graded here.

By UniProt entry, the sequences of proteins in these tests, tags left out. Where a name states a change or a piece, a line headed by the entry shows the natural chain unless it says otherwise. Residues count along the entry.
UniProt P23201: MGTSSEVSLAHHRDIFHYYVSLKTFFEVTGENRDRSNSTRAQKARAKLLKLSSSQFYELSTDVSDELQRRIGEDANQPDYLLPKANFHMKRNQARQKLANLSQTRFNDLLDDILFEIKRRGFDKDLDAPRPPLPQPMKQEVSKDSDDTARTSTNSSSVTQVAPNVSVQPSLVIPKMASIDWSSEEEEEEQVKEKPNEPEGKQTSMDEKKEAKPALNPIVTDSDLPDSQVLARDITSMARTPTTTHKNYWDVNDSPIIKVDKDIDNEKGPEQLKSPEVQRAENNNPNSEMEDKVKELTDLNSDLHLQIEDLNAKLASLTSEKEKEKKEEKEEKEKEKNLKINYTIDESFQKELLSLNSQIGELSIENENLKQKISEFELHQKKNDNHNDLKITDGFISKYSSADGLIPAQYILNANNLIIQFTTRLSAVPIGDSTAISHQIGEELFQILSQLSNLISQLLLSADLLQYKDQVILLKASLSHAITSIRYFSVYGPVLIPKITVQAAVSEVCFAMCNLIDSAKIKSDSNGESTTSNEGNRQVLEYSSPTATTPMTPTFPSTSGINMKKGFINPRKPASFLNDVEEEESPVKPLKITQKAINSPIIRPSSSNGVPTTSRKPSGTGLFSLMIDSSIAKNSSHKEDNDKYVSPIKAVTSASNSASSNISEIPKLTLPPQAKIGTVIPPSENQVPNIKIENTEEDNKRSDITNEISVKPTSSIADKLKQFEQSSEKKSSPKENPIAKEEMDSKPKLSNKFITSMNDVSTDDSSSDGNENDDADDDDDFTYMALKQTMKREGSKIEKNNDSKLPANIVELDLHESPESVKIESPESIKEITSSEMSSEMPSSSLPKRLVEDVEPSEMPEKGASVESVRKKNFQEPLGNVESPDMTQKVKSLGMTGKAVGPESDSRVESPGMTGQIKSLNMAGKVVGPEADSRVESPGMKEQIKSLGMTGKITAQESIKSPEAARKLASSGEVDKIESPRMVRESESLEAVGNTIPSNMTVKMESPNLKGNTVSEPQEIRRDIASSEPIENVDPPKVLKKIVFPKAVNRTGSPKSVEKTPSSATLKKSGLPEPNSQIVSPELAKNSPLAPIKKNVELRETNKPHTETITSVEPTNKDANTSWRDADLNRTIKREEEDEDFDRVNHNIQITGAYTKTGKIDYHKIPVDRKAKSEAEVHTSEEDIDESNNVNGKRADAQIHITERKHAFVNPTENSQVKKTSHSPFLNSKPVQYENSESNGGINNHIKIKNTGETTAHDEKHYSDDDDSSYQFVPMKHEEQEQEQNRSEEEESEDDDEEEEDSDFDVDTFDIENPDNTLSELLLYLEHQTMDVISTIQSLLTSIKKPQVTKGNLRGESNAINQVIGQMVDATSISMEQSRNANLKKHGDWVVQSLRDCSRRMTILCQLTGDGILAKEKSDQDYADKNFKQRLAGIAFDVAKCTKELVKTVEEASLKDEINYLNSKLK
SHD1CRU: residues 1-124 of P23201

The values that follow come from paper doi:10.1101/2025.06.12.659263.

Common to all, as to test: split reporter
The target in test [1] is SHD1CRU (S. cerevisiae) (UniProt P23201).
For test [2] the target is unchanged. This is another data set of the same source.
The target of a further test is Spa2CRU (S. cerevisiae) (UniProt P23201).

B1: Nub-Msb4_(Δ35-39) (protein, UniProt Q12317)
chain: MIMSSTMSTEAALVPNESVFDTVSSFNEDDANYSDDDDEGDDSSTVERKEILTTRELEKAKAFTSLIMADPENFDRYGFSKKGYFISQEEYDKWWTEYNRYTERRKKKWENFLLKNKIELHNDNPLVYPARTDELSKFVRKGIPAEWRGNAWWYFAGGQRQLDANVGVYDRLKSDCREGAVSGKDMEAIERDLYRTFPDNIHFHKESFQNGEPAIIRSLRRVLMAFSVYDKTIGYCQSMNFLVGLLLLFMEEEKAFWMLVIITGKYLPGVYESDLEGANVDQGVLVLCIKEYLPEIWSHIESSYMNGNGSTDQISGPASGEEYLCRLPTLTLCTASWFMSCFVGVVPIETTLRIWDCLFYEESHFLFKVALGILKLSESEFLESKSQKLFRQYSSYTFGGSNDSDSTFKRLKNKIKTQEEADMEILQVIQNFPKRLLNPNDIFEKVLMKKKVALNGITQEKIDRGREYVAMARNRQRASSRPKERRK
On to B1, for which the binding result with SHD1CRU (S. cerevisiae) [1] is reported as “no binding”.

B2: Mkk1_(143–202), the N-terminal extension of Mkk1_(143–202)SHD1CRU (domain or fragment, UniProt P32490 143-202)
chain: ASPFSHTNTSSPYLRNDLSNSVGSDFSNLISAYEQSSSPIKSSSQPKSSSESYIDLNSVR
Take B2: in the test with SHD1CRU (S. cerevisiae) [2], the binding entry was “binds weakly”.

For the molecule SSLSQSPCVSSSSSLSTPCIIDAYSNNFGLSPSSTN (peptide, UniProt P06784 100-135) [Nub-Ste7_(100-135)], the binding entry in the test with SHD1CRU (S. cerevisiae) [2] is given as “no binding”.

B3: Nub-Mkk1 with Ser0 substituted by Asp (protein, UniProt P32490 1-508)
chain: MASLFRPPESAKCNPNSPRLKLPLLRNNQVDENNIYLTSNGSSTTAYSSHTPEPLTSSTSTLFSQTRLHPSDSSMTLNTMKKRPAPPSLPSLSINSQSKCKTLPELVPIADVSDGKHDLGLKQRVIAENELSGNSDLTPSSMASPFSHTNTSSPYLRNDLSNSVGSDFSNLIDAYEQSSSPIKSSSQPKSSSESYIDLNSVRDVDQLDENGWKYANLKDRIETLGILGEGAGGSVSKCKLKNGSKIFALKVINTLNTDPEYQKQIFRELQFNRSFQSEYIVRYYGMFTDDENSSIYIAMEYMGGRSLDAIYKNLLERGGRISEKVLGKIAEAVLRGLSYLHEKKVIHRDIKPQNILLNENGQVKLCDFGVSGEAVNSLATTFTGTSFYMAPERIQGQPYSVTSDVWSLGLTILEVANGKFPCSSEKMAANIAPFELLMWILTFTPELKDEPESNIIWSPSFKSFIDYCLKKDSRERPSPRQMINHPWIKGQMKKNVNMEKFVRKCWKD
In the case of B3, in the test with SHD1CRU (S. cerevisiae) [2], the binding entry is recorded as “binds”.

B4: Dse3_(181-240), the N-terminal extension of Dse3_(181-240)-SHD1CRU (domain or fragment, UniProt Q08729 181-240)
chain: SLMQTQTQDCCRKNKYGKSGSEILFDEILSAYENVSTSDSTALNSEIDRIIDICASKQIA
As for B4, in the test with SHD1CRU (S. cerevisiae) [2], the binding entry was “binds”.

B5: Nub-Msb3 D0A (protein, UniProt P48566 1-633)
chain: MQNDQQRFSLQNRTVLAHPYKRLGGAFTVKSPSVPNFHDKMHSDHSSSDSALVNGSFRANDHRSVEPSCLGQASPSEHDGNLSVIALYGDEVESQRAEGEDDDDNNGDNGNEDLEEVHSDDLDLVPDDDNRQRVELEGAASATSANSNGINNTHFDRYGFKKQNNYISEAEYDKWWVEYSQYCVRRKHKWQLLLEKSGLPVTDDSPSRFPSKSERLKRYVRKGIPAEWRGNAWWHFARGQEKLNKNKGVYSQLLRKMKQIKKQNPNEKQVQDLDIIERDLNRTFPDNIHFQSSLHNKEGPPIIKSLRRVLVAFSLYNPKIGYCQSMNFLAGLLLLFLDEERAFWMLVIITSRYLPGVHNINLEGVNIDQGVLMLCVKEYIPEVWSYIKPSIDHHQKNNKTFSPSNKKVLFNMQKNEFLYRLPPITLCTASWFMSCFVGVVPIETTLRIWDCLFYEESHFLFKVSLAVLKLSEHDLSKIKPRNNSLNYSWGSNLNQRGGSMGQEDSDMEIFQVIQTFPKTLLNPNEIFEKIIFKRRFNLNRLDQDEIDRCRKFVAAQRLKFKTYGELLGNSTSEADLPINDNTDNKGIHITSDAVNEALSSEVYGFKKSLAGVHWNNSIKEKVKQMRKKKDKGD
For B5, the binding entry with SHD1CRU (S. cerevisiae) [2] was “binds”.

B6: Nub-Msb3 L-4Y (protein, UniProt P48566 1-633)
chain: B5 chain with L82Y, A86D
For B6, the binding result in the test with SHD1CRU (S. cerevisiae) [2] was “binds”.

B7: Nub-Msb3 +1A (protein, UniProt P48566 1-633)
chain: B5 chain with A86D, L87A
For the molecule B7, in the test with SHD1CRU (S. cerevisiae) [2], the binding entry is on record as “binds”.

B8: Nub-Msb3 Y+2A (protein, UniProt P48566 1-633)
chain: B5 chain with A86D, Y88A
On to B8, for which the binding result in the test with SHD1CRU (S. cerevisiae) [2] is reported as “no binding”.

B9: Nub-Msb4 D0A (protein, UniProt Q12317 1-492)
chain: MIMSSTMSTEAALVPNESVFDTVSSFNEDDANYSVLALYDDDDEGDDSSTVERKEILTTRELEKAKAFTSLIMADPENFDRYGFSKKGYFISQEEYDKWWTEYNRYTERRKKKWENFLLKNKIELHNDNPLVYPARTDELSKFVRKGIPAEWRGNAWWYFAGGQRQLDANVGVYDRLKSDCREGAVSGKDMEAIERDLYRTFPDNIHFHKESFQNGEPAIIRSLRRVLMAFSVYDKTIGYCQSMNFLVGLLLLFMEEEKAFWMLVIITGKYLPGVYESDLEGANVDQGVLVLCIKEYLPEIWSHIESSYMNGNGSTDQISGPASGEEYLCRLPTLTLCTASWFMSCFVGVVPIETTLRIWDCLFYEESHFLFKVALGILKLSESEFLESKSQKLFRQYSSYTFGGSNDSDSTFKRLKNKIKTQEEADMEILQVIQNFPKRLLNPNDIFEKVLMKKKVALNGITQEKIDRGREYVAMARNRQRASSRPKERRK
Regarding B9, the binding entry with SHD1CRU (S. cerevisiae) [2] is “binds”.

B10: Nub-Msb4 Y+2A (protein, UniProt Q12317 1-492)
chain: B9 chain with A37D, Y39A
Take B10: the binding result in the test with SHD1CRU (S. cerevisiae) [2] is listed as “no binding”.

B11: Msb4_(22-81), the N-terminal extension of Msb4_(22-81)-Spa2CRU (domain or fragment, UniProt Q12317 22-81)
chain: TVSSFNEDDANYSVLDLYDDDDEGDDSSTVERKEILTTRELEKAKAFTSLIMADPENFDR
Turning to B11, in the test with Spa2CRU (S. cerevisiae), the binding entry was “binds”.

B12: Nub-Msb3_(Δ84-88) (protein, UniProt P48566)
chain: MQNDQQRFSLQNRTVLAHPYKRLGGAFTVKSPSVPNFHDKMHSDHSSSDSALVNGSFRANDHRSVEPSCLGQASPSEHDGNLSGDEVESQRAEGEDDDDNNGDNGNEDLEEVHSDDLDLVPDDDNRQRVELEGAASATSANSNGINNTHFDRYGFKKQNNYISEAEYDKWWVEYSQYCVRRKHKWQLLLEKSGLPVTDDSPSRFPSKSERLKRYVRKGIPAEWRGNAWWHFARGQEKLNKNKGVYSQLLRKMKQIKKQNPNEKQVQDLDIIERDLNRTFPDNIHFQSSLHNKEGPPIIKSLRRVLVAFSLYNPKIGYCQSMNFLAGLLLLFLDEERAFWMLVIITSRYLPGVHNINLEGVNIDQGVLMLCVKEYIPEVWSYIKPSIDHHQKNNKTFSPSNKKVLFNMQKNEFLYRLPPITLCTASWFMSCFVGVVPIETTLRIWDCLFYEESHFLFKVSLAVLKLSEHDLSKIKPRNNSLNYSWGSNLNQRGGSMGQEDSDMEIFQVIQTFPKTLLNPNEIFEKIIFKRRFNLNRLDQDEIDRCRKFVAAQRLKFKTYGELLGNSTSEADLPINDNTDNKGIHITSDAVNEALSSEVYGFKKSLAGVHWNNSIKEKVKQMRKKKDKGD
Turning to B12, in the test with SHD1CRU (S. cerevisiae) [1], the binding result is given as “no binding”.

For the molecule GQASPSEHDGNLSVIDLYGDEVESQRAEGE (peptide, UniProt P48566 71-100) [Nub-Msb3_(71-100)], in the test with SHD1CRU (S. cerevisiae) [2], the binding entry is reported as “binds”.

B13: Nub-Mkk1Δ171–175 (protein, UniProt P32490)
chain: MASLFRPPESAKCNPNSPRLKLPLLRNNQVDENNIYLTSNGSSTTAYSSHTPEPLTSSTSTLFSQTRLHPSDSSMTLNTMKKRPAPPSLPSLSINSQSKCKTLPELVPIADVSDGKHDLGLKQRVIAENELSGNSDLTPSSMASPFSHTNTSSPYLRNDLSNSVGSDFSNEQSSSPIKSSSQPKSSSESYIDLNSVRDVDQLDENGWKYANLKDRIETLGILGEGAGGSVSKCKLKNGSKIFALKVINTLNTDPEYQKQIFRELQFNRSFQSEYIVRYYGMFTDDENSSIYIAMEYMGGRSLDAIYKNLLERGGRISEKVLGKIAEAVLRGLSYLHEKKVIHRDIKPQNILLNENGQVKLCDFGVSGEAVNSLATTFTGTSFYMAPERIQGQPYSVTSDVWSLGLTILEVANGKFPCSSEKMAANIAPFELLMWILTFTPELKDEPESNIIWSPSFKSFIDYCLKKDSRERPSPRQMINHPWIKGQMKKNVNMEKFVRKCWKD
As for B13, the binding entry with SHD1CRU (S. cerevisiae) [2] was “no binding”.

Take DTVSSFNEDDANYSVLDLYDDDDEGDDSST (peptide, UniProt Q12317 21-50) [Nub-Msb4_(21-50)]: in the test with SHD1CRU (S. cerevisiae) [2], the binding entry is “binds”.
